Mtb cholesterol medium: 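Whole-cell growth test on Mycobacterium tuberculosis, read after 4 days in a medium based on cholesterol and the lipid DPPC; the read-out is not stated. Compounds at 50 µM. Higher reads as more growth inhibition (inferred: compounds with an IC50 in retests scored well above the rest). Of about 69,000 compounds tested this way, about 370 (0.54%) reached 50% or more in at least one test.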
Mtb glucose medium: 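Phenotypic screen: M. tuberculosis growth, glucose 7H9 medium, 3 days; the read-out is not stated. Tested at 50 µM. Direction is inferred from retests: higher values go with more growth inhibition. Size under these conditions: about 69,000 compounds, about 760 of them at 50% or above in at least one test.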

The filed quantity is “Percent Effect” (%). How 0% and 100% were set is not recorded. Most values in the screen are low, and negative values occur. Compounds were drawn at random from those tested, without regard to their results. Two or more numbers in one place are separate tests of the same structure; such repeats can differ widely.

| structure | Mtb cholesterol medium | Mtb glucose medium |
|---|---|---|
| `Cc1nc2ccc(C(=O)N(CCC#N)CCC#N)cc2nc1C` | -4.941% | -11.13% |
| `O=C(NCC(O)c1cccs1)c1ccco1` (centres unmarked) | -9.193% | 23.6% |
| `O=C(CCC(F)(F)F)N1CCCC2(CCC(=O)N(CC3CC3)C2)C1` (centres unmarked) | 13.05% | 2.526% & 8.369% |
| `CNC(=O)c1n[nH]c2c1C(c1cccc3[nH]ccc13)CC(=O)N2` (centres unmarked) | -6.331% | -9.033% |
| `COCC1CN(Cc2ccsc2)Cc2cnn(C)c21` (centres unmarked) | 21.66% | 24.23% |
| `CC(CNC(=O)c1nc(N2CCOCC2)ncc1Cl)c1ccccc1` (centres unmarked) | -0.1696% | 14.94% |
| `O=C(NCC1CC(=O)N(CCc2ccccc2)C1)c1c(F)cccc1F` (centres unmarked) | 13.12% | 11.48% |
| `CCOC(=O)[C@H]1[C@@H](O)C(=O)N(C)C12CCN(C(=O)c1ccccc1)CC2` | 0.09958% | -4.831% |
| `Cc1nc(-c2ccc(F)c(F)c2)cc(C2CCNCC2)n1.Cl` | 29.5% | 47.31% |
| `N#Cc1ccc(C2CC(=O)Nc3c2cnn3C2CCCC2)cc1` (centres unmarked) | 25.24% | 16.64% |
| `CCn1ccc(NC(=O)CCc2c(C)noc2C)n1` | -9.57% | 5.04% |
| `Cc1nn(C)c(C)c1CCC(=O)NCc1cccnc1OC1CCCC1` | -5.486% & 1.361% | -5.772% & 2.944% |
| `COC1CN(C(=O)COC(C)=O)CCC(=O)N(C)c2ccccc21` (centres unmarked) | 0.3737% | 16.46% |
| `CC(Cc1cncs1)Nc1ncnc2cccc(F)c12` (centres unmarked) | -19.56% | 4.824% |
| `[H][C@]12CC[C@]([H])(CN(CC(=O)N(C)C)C1)N(C(=O)Cc1ccccc1Cl)C2` | -19.07% | -49.22% |
| `Clc1cnccc1N1CCC(OC2CCOCC2)CC1` | -19.89% | 5.533% |
| `O=C1C(CS(=O)(=O)Nc2ccc(Br)cc2)=NC(=O)n2cccc21` | 17.71% | 28.34% |
| `Cc1cc2ncn(C(=O)N3CCOCC3)c2cc1C` | -12.42% | -5.808% |
| `COc1nc2ccn(CCc3cnccn3)c(=O)c2cc1C#N` | -24.86% | -46.4% |
| `O=C(O)c1coc(COc2cccc3cnccc23)n1` | -13.1% & -3.681% | -18.45% & -4.188% |
| `CN1CCCN(c2ccc(F)cc2CNC(=O)c2cccnc2)CC1` | -7.382% | -6.109% |
| `CNC(=O)C(C)(C)N1CCC[C@H]1C(=O)NCC1CC1` | -28.68% | -13.62% & -64.63% |
| `Cc1ccc(NC2CCN(C(=O)c3ccc(Cl)cc3F)CC2)nn1` | -33.47% | -3.595% |
| `O=c1[nH]c(NCCO)nc2c1C1(CCCCC1)Cc1ccccc1-2` | -3.249% | 6.217% |
| `Cc1nn(C)c(N(C)C)c1CNC(C)COc1ccccc1F` (centres unmarked) | -3.661% | 28.44% |
| `COCCCN(C(=O)c1ccc(-n2ccnc2)cc1)C1CCN(C)CC1` | -22.48% | -20.53% |
| `CCCC(=O)N1CCCCC1C(=O)Nc1ccc(-c2nnc[nH]2)cc1` (centres unmarked) | -1.971% | -7.042% |
| `CCn1cnnc1CNC(=O)N1CCN(c2nccs2)CC1` | -5.118% | -10.74% |
| `Cc1nc(N2CCC3(CCOC3)C2)c2cc[nH]c2n1` (centres unmarked) | -38.87% | -23.5% |
| `[H][C@]12CC[C@]([H])(CN(S(C)(=O)=O)C1)N(CCC(=O)NCc1ccccc1F)C2` | 6.78% | 4.25% |
| `N#CCSCCCN1CCCN(C(=O)c2ccccc2)CC1` | -1.579% | -17.37% |
| `Fc1cccc(CN2CCOCC3(CCN(C4CCOCC4)C3)C2)c1.O=C(O)C(F)(F)F.O=C(O)C(F)(F)F` (centres unmarked) | 8.656% | 14.56% |
| `O=C(O)C(F)(F)F.[H][C@@]12CO[C@@H](CNS(C)(=O)=O)[C@]1([H])CCN(Cc1ccccc1)C2` | 0.9318% | -0.9397% |
| `CCN(CC)c1ccc2ccc(C(=O)N(CCOC)CCOC)cn12.O=C(O)C(F)(F)F` | -11.24% | -18.19% & 3.034% |
| `O=C(O)c1ccnc(-c2ccnc(COc3ccc(Cl)cc3)n2)c1` | -34.89% | -8.702% |
| `Cc1cc(C)cc(C(C)NC(=O)c2ccc(CS(C)(=O)=O)o2)c1` (centres unmarked) | 19.04% | 22.36% & 10.31% |
| `Cc1ncsc1C(=O)NCc1cccs1` | -4.726% | 10.92% |
| `CCS(=O)(=O)NCCCNc1ncnc2cc(F)c(F)cc12` | -13.62% | -0.2158% & -0.9065% |
| `COCCN1CCCC(O)(CN2CCN(c3cnccn3)CC2)C1=O` (centres unmarked) | 5.39% | 10.33% |
| `O=C(O)C(F)(F)F.c1ccc(-c2ccc3nc(C4CCN(CC5CC5)CC4)nn3c2)cc1` | 29.24% | 30.38% |
| `CC(C)(C)c1nc(CN(Cc2cccs2)CC2CCCO2)no1` (centres unmarked) | -5.161% | -17.95% |
| `O=C(c1cnns1)N1CCN(c2ccc(F)cc2Cl)CC1` | 15.62% | 4.245% |
| `CC(=O)c1c(C)nn(CC(=O)N2Cc3cnc(CC(C)C)nc3C2)c1C` | -26.42% | -14.52% |
| `COc1ccc(C(=O)NS(=O)(=O)c2cncc(Br)c2)c(OC)c1` | -13.05% | -10.28% & 0.8699% |
| `NS(=O)(=O)CC1CCN(c2ncccc2C(F)(F)F)CC1` | -11.74% | -16.95% |
| `CCc1nnc(CN(C)c2nccc(CCC(F)(F)F)n2)o1` | 11.09% | 30.15% |
| `O=C(NCc1ccccc1Cn1ccnc1)N1CCSCC1` | -0.6209% & -8.91% | -34.95% |
| `CN1CCC2(CC1)C(=O)N(C)c1ccc(F)cc12.Cl` | 3.812% | -15.91% |
| `CCOCCN1CCC(C(=O)c2cc(F)ccc2F)CC1` | -2.554% | -7.525% & -70.81% |
| `CCN1Cc2nccn2CC(COCc2csc(C)n2)C1.O=C(O)C(F)(F)F.O=C(O)C(F)(F)F` (centres unmarked) | -3.613% | -0.1691% |
| `COCCCn1cnnc1C(C)NC(=O)c1[nH]c2ccc(C)cc2c1C` (centres unmarked) | 5.137% | -3.158% |
| `O=C(NCc1ccccc1CN1CCC(O)CC1)Nc1ccccc1` | -0.1415% & -0.7952% | 5.548% |
| `COc1ccccc1[C@@H]1CN(CC(=O)N2CCCCC2)C[C@H]1C(=O)O` | -5.26% | 24.31% |
| `Cc1ccc(CNC(=O)CN2CCCC(Cn3cncn3)C2)s1` (centres unmarked) | -29.56% | -12.97% |
| `O=C(O)C(F)(F)F.O=C(c1cnccn1)N1CCCC2(CCN(Cc3ccsc3)CC2)C1` | -11.31% | -11.98% |
| `CCS(=O)(=O)N1CCc2ccc(NC(=O)NCCc3ccccc3)cc21` | -6.424% | 3.154% |
| `[H][C@@]12CCN(C(=O)c3cc(C)[nH]c3C)C[C@@]1([H])O[C@@H](c1ccncn1)C2` | -0.4597% | -2.75% |
| `CN(C)CC(=O)N1CCc2ncnc(-c3ccsc3)c2CC1` | 2.205% | -8.11% & -9.796% |
| `CCC(=O)N1CCCC(C(=O)c2cnn(-c3ccc(F)cc3)c2N)C1` (centres unmarked) | -9.29% & 1.758% | 5.834% |
| `CCc1nc(-c2ccnc(N3CCNCC3)n2)no1.Cl.Cl` | -6.511% | 13.65% & 3.69% |
| `O=C(O)C(F)(F)F.[H][C@@]12CN(C(=O)c3cccs3)C[C@]1([H])OCCN2CCOC` | -1.308% | -1.044% & 3.331% |
| `Cc1nn(Cc2ccc(C(=O)NCCCN3CCCC3=O)o2)c(C)c1Br` | 2.298% | 14.93% |
| `CC(=O)N1CCCN(C(=O)NCCCn2cncn2)CC1` | 19.35% | 4.377% |
| `COc1c(C)cnc(CNC(=O)c2cc(C)nc3c2c(C)nn3C)c1C` | 17.08% | 3.274% |
| `Cc1ccnc(N2CCN(C3CCS(=O)(=O)C3)CC2)n1` (centres unmarked) | -33.56% | -25.26% |
| `Cc1cnn(CCNCC(=O)NC(c2ccccc2)c2ccccc2)c1` | -8.066% | -25.27% |
| `O=C(c1ccc[nH]1)N1CCn2cc(Cn3cncn3)nc2C1` | -3.481% | -0.6554% |
| `COc1ccnc(CNc2nc(C)nc3ccsc23)c1` | -23.33% | -6.778% & -1.769% |
| `OC1(CN2CCCCC2)CCN(c2cccc(C(F)(F)F)n2)C1` (centres unmarked) | -22.19% | 17.85% & 0.7138% |
| `COc1cnc(N2C[C@H](CO)C[C@H](CN3CCOCC3)C2)nc1` | 3.77% | 10.17% |
| `CCOCCN1CCc2cncnc2C1` | -58.47% | -75.94% |
| `CCN(CC1CCOC1)C(=O)c1ccccc1N1CCOCC1` (centres unmarked) | -14.13% | -5.793% |
| `CC(CNC(=O)c1ccco1)N1CCc2sccc2C1` (centres unmarked) | 1.608% | 5.513% |
| `O=C(O)C(F)(F)F.[H][C@@]12CCN(c3ncccn3)C[C@@]1([H])O[C@@H](C(=O)NCCOC)C2` | 0.6478% | 1.316% |
| `Cc1cc2cc(C(=O)N[C@@H]3CC[C@@H](N4CCCC4)[C@@H]3O)ccc2o1` | -10.69% | 18.89% |
| `COc1ccccc1-c1cc(C(=O)Nc2nc[nH]n2)[nH]n1` | 5.795% | 7.956% |
| `[H][C@@]12CCC(=O)N(CCCOC)[C@]1([H])CCN(c1cc(C(N)=O)ccn1)C2` | 14.89% | 0.3417% & -6.684% |
| `COc1ccc(NC(=O)NC(C)(C)c2noc(C)n2)cc1` | 0.3314% | -19.04% & 0.3578% |

For reference, 8 entries once more:

structure	Mtb cholesterol medium	Mtb glucose medium
COc1ccc(C(=O)NS(=O)(=O)c2cncc(Br)c2)c(OC)c1	-13.05%	-10.28% & 0.8699%
CCC(=O)N1CCCC(C(=O)c2cnn(-c3ccc(F)cc3)c2N)C1 (centres unmarked)	-9.29% & 1.758%	5.834%
COc1ccnc(CNc2nc(C)nc3ccsc23)c1	-23.33%	-6.778% & -1.769%
CCn1cnnc1CNC(=O)N1CCN(c2nccs2)CC1	-5.118%	-10.74%
CCc1nc(-c2ccnc(N3CCNCC3)n2)no1.Cl.Cl	-6.511%	13.65% & 3.69%
CC(=O)c1c(C)nn(CC(=O)N2Cc3cnc(CC(C)C)nc3C2)c1C	-26.42%	-14.52%
CNC(=O)C(C)(C)N1CCC[C@H]1C(=O)NCC1CC1	-28.68%	-13.62% & -64.63%
CCN1Cc2nccn2CC(COCc2csc(C)n2)C1.O=C(O)C(F)(F)F.O=C(O)C(F)(F)F (centres unmarked)	-3.613%	-0.1691%

Data taken from ChEMBL document CHEMBL3988442, “University of Dundee, Small-Polar-MMV Screening Library” (2021).